Measurements reported in PubChem BioAssay AID652243 (Drosophila RNAi Screening Center, 2013).
The deposit covers about 24,000 reagents; this is an unselected part of those that have a named target and a result. Of all reagents, 246 (1%) got an active call. 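Plates not normalised; calls are printed but the firefly/Renilla ratio behind them is not deposited; fold cut for lowering reported inconsistently.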 Raw values are not corrected between plates. Unmarked entries are inactive. Reagents against one gene are numbered here. Not given: the amount of reagent.

Screen: 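Knock-downs that decrease or increase androgen receptor reporter signal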 (primary screen)
Cells: Drosophila S2R+ cells
Knock-down reagent: long dsRNA against Drosophila genes
Timing: 72 h (48 h, then 24 h hormone)
Conditions: synthetic androgen R1881 at 10 nM for 24 h
Measurement: 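Per-well raw luminescence of the androgen-driven firefly reporter and of the Renilla control, two replicates each, without normalisation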
Direction: firefly reporter light: higher = more light from androgen-responsive reporter; Renilla control light: higher = more constitutive control signal (cell number, transfection)
Rule for the call: 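Across duplicate plates, a knock-down whose log firefly/Renilla ratio shifted a set fold down or up from the GFP/LacZ control mean was a hit; the downward cut appears as both 1.5 and 3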
Meaning of the calls: active = hit: reporter lowered or raised; inactive = no hit

predicted target	reagent no.	firefly reporter light, replicate 1	firefly reporter light, replicate 2	Renilla control light, replicate 1	Renilla control light, replicate 2
mRpL22 (mitochondrial ribosomal protein L22)	1	2.30e5	2.69e5	2.81e6	1.99e6
mRpL22 (mitochondrial ribosomal protein L22)	2	1.85e5	1.19e5	3.20e5	2.31e5
CG3032	1	1.64e5	1.48e5	2.51e6	1.93e6
CG3032	2	9.19e5	7.61e5	9.83e5	1.08e6
ppk3 (pickpocket 3)	1	3.49e5	3.92e5	1.80e6	2.35e6
ppk3 (pickpocket 3)	2	3.27e5	3.40e5	8.16e5	6.65e5
Lamtor1 (Late endosomal/lysosomal adaptor, MAPK and MTOR activator 1)	1	3.11e5	2.86e5	2.84e6	3.02e6
smal (smoke alarm)	1	1.20e5 (active)	1.46e5	1.92e6	1.76e6
smal (smoke alarm)	2	1.67e5	1.14e5	2.03e6	1.24e6
smal (smoke alarm)	3	2.01e5	2.03e5	2.25e6	1.53e6
smal (smoke alarm)	4	2.37e5	1.48e5	1.88e6	1.66e6
smal (smoke alarm)	5	2.36e5	3.57e5	8.16e5	1.07e6
smal (smoke alarm)	6	7.40e5 (active)	6.10e5	7.64e5	5.28e5
ind (intermediate neuroblasts defective)	1	6.22e5	7.64e5	1.09e6	1.45e6
CG17177	1	2.75e5	2.73e5	2.64e6	2.47e6

Next part, starting with the last 5 of the part before.
predicted target	reagent no.	firefly reporter light, replicate 1	firefly reporter light, replicate 2	Renilla control light, replicate 1	Renilla control light, replicate 2
smal (smoke alarm)	4	2.37e5	1.48e5	1.88e6	1.66e6
smal (smoke alarm)	5	2.36e5	3.57e5	8.16e5	1.07e6
smal (smoke alarm)	6	7.40e5 (active)	6.10e5	7.64e5	5.28e5
ind (intermediate neuroblasts defective)	1	6.22e5	7.64e5	1.09e6	1.45e6
CG17177	1	2.75e5	2.73e5	2.64e6	2.47e6
CG7849	1	2.95e5	3.63e5	1.66e6	1.81e6
CG7849	2	3.01e5	2.93e5	5.69e5	6.11e5
Spn43Ab (Serpin 43Ab)	1	1.84e5	1.15e5	1.61e6	8.78e5
Spn43Ab (Serpin 43Ab)	2	3.49e5	5.27e5	1.25e6	2.23e6
SLIRP2 (SRA stem-loop interacting RNA binding protein 2)	1	1.27e5	1.32e5	2.46e6	2.67e6
SLIRP2 (SRA stem-loop interacting RNA binding protein 2)	2	3.87e5	4.38e5	6.97e5	7.26e5
CG3690	1	2.67e5	2.81e5	5.47e6	4.40e6
CG3690	2	2.99e5	4.10e5	5.88e6	3.92e6
CG32720	1	4.87e5	6.10e5	3.80e5	4.92e5
Mtap (Methylthioadenosine phosphorylase)	1	7.61e5	6.91e5	9.60e5	4.88e5
RNaseMRP:RNA (Ribonuclease MRP RNA)	1	7.21e5	5.88e5	1.94e6	1.69e6
Sqor (Sulfide quinone oxidoreductase)	1	6.22e5	2.29e5	1.14e6	8.11e5
Sqor (Sulfide quinone oxidoreductase)	2	5.17e5	3.05e5	7.38e5	3.45e5
CG33969	1	2.68e5	1.86e5	2.28e6	2.39e6
Dpm3 (Dolichyl-phosphate mannosyltransferase subunit 3)	1	7.34e5	8.49e5	1.46e6	1.74e6
Hel25E (Helicase at 25E)	1	5.20e5	6.67e5	1.28e6	1.48e6
Hel25E (Helicase at 25E)	2	1.51e5 (active)	3.09e5	1.02e6	1.37e6
Gr59f (Gustatory receptor 59f)	1	2.71e5	3.55e5	1.40e6	1.47e6
Gr59f (Gustatory receptor 59f)	2	4.10e5	3.25e5	8.25e5	6.00e5
Alg1 (ALG1, chitobiosyldiphosphodolichol beta-mannosyltransferase)	1	55314	55674	4.04e5	3.53e5
Alg1 (ALG1, chitobiosyldiphosphodolichol beta-mannosyltransferase)	2	5.63e5	5.30e5	1.23e6	1.23e6
fd3F (forkhead domain 3F)	1	7.28e5	1.00e6	1.20e6	1.45e6
CG13999	1	1.48e5	1.99e5	1.00e6	1.32e6
CG13999	2	4.25e5	4.14e5	7.65e5	7.65e5
CG33234	1	9.88e5	7.36e5	2.14e6	1.33e6
